Laboratory results from patent US20120065228A1, “COMPOSITIONS AND METHODS FOR TREATING, CONTROLLING, REDUCING, OR AMELIORATING OCULAR INFLAMMATORY WITH LOWER RISK OF INCREASED INTRAOCULAR PRESSURE” (priority 2007, published 2012).
Values joined by “and” are separate entries in the source; they are usually repeats but may differ in a detail not shown here. Identical values can stand only once.

Test system: Myeloperoxidase (MPO)
Assay: Myeloperoxidase (MPO) activity in iris-ciliary body, rabbit paracentesis model
Format: in vivo
Settings: individual eyes
Method: Each rabbit was placed in a restraint device and tagged with the alphanumeric code. The formulations were instilled (50 μl) into the conjunctival sac of both eyes 180, 120, 90 and 30 min before the first paracentesis; then 15, 30, 90 min after the first paracentesis. To perform the first paracentesis the animals were anaesthetized by intravenous injection of 5 mg/kg Zoletil® (Virbac; 2.5 mg/kg tiletamine HCl and 2.5 mg/kg zolazepam HCl) and one drop of local anesthetic (Novesina®, Novartis) was administered to the eye. Anterior chamber paracentesis was performed with a 26 G needle attached to a tuberculin syringe; the needle was introduced into the anterior chamber through the cornea, taking care not to damage the tissues. Two hours after the ® first paracentesis, the animals were sacrificed with 0.4 ml Tanax® (Intervet International B.V.) and the second paracentesis was performed. About 100 μl of aqueous humor were removed at the second paracentesis. Aqueous humor was immediately split in four aliquots and stored at −80° C. until analysis. Then both eyes were enucleated and the iris-ciliary body was carefully excised, placed in polypropylene tubes, and stored at −80° C. until analysis.
The activity of MPO was measured as previously described by Williams et al. The iris-ciliary bodies were carefully dried, weighed and immersed in 1 ml of hexa-decyl-trimethyl-ammonium bromide solution. Then, the samples were sonicated for 10 sec on ice by a ultrasound homogenizer (HD 2070, Bandelin electronic), freeze-thawed three times, sonicated for 10 sec and centrifuged at 14,000 g for 10 min to remove cellular debris. An aliquot of the supernatant (40-200 μl) was diluted to 3 ml with the o-dianisidine 2HCl/H2O2 solution. The change in absorbance at 460 nm was continuously monitored for 5 min by a spectrophotometer (UV/Vis Spectrometer Lambda EZ 201; Perkin Elmer). The slope of the line (Δ/min) was determined for each sample and used to calculate the number of units of MPO in the tissue as follows:
were ε=11.3 mM^−1. Values were expressed as units of MPO/g of tissue.
Pupillary diameter, PGE2, protein, PMN, and MPO were expressed as mean±SEM. Statistical analysis was performed using one way ANOVA followed by a Newman-Keuls post hoc test. Clinical score was expressed as % of eyes and the statistical analysis was performed using Kruskal-Wallis followed by a Dunn post hoc test. P<0.05 was considered statistically significant in both cases. Prism 4 software (GraphPad Software, Inc.) was used for the analysis and graphs.

In the case of Cc1ccc2c(NCC(O)(CC(C)(C)c3cc(F)cc4c3OCC4)C(F)(F)F)cccc2n1 (centres unmarked) [BOL-303242-X], the “Δ/min (mean of the slope of the line recorded every 15 sec for 5 min)” value (0.1% BOL, 100 μl supernatant aliquot diluted to 3 ml, listed as BOL) is reported as 0.051 and 0.042 (2×) and 0.045 and 0.050 and 0.031 (2×) and 0.036, the “Δ/min (mean of the slope of the line recorded every 15 sec for 5 min)” value (0.5% BOL, 100 μl supernatant aliquot diluted to 3 ml, listed as BOL) is reported as 0.044 and 0.040 and 0.031 and 0.049 and 0.033 and 0.034 and 0.022 and 0.026 and the “Δ/min (mean of the slope of the line recorded every 15 sec for 5 min)” value (1% BOL, 100 μl supernatant aliquot diluted to 3 ml, listed as BOL) is reported as 0.024 and 0.033 and 0.017 and 0.018 (2×) and 0.016 and 0.052 and 0.013.

With CC(C(=O)O)c1ccc(-c2ccccc2)c(F)c1 (centres unmarked) [F, flurbiprofen, reference compound] the “Δ/min (mean of the slope of the line recorded every 15 sec for 5 min)” value (0.03% F, 100 μl supernatant aliquot diluted to 3 ml) was 0.049 and 0.082 and 0.013 and 0.031 and 0.038 and 0.027 and 0.033 and 0.061.

With CCOC(=O)O[C@]1(C(=O)OCCl)CC[C@H]2[C@@H]3CCC4=CC(=O)C=C[C@]4(C)[C@H]3[C@@H](O)C[C@@]21C [LE, loteprednol etabonate, reference compound] the “Δ/min (mean of the slope of the line recorded every 15 sec for 5 min)” value (0.5% LE, 200 μl supernatant aliquot diluted to 3 ml) was 0.026 and 0.053 and 0.067 and 0.055 and 0.076 and 0.096.
